Results on 21 compounds are retold here after PubChem BioAssay AID248 (DTP/NCI, 2004).

The test system of the assay is L1210 leukemia ip in BDF1 mice, survival T/C. The assay is described as follows: NCI In Vivo Anticancer Drug Screen. Data for tumor model L1210 Leukemia (intraperitoneal) in B6D2F1 (BDF1) mice. As to conditions: higher T/C = longer survival.
The mark [1] stands for this setting: T/C endpoint: mean survival time, dose: 200.0 mg/kg/injection, schedule: Q01DX001 (ip), vehicle: saline with Tween-80.
The mark [2] stands for this setting: T/C endpoint: mean survival time, dose: 400.0 mg/kg/injection, schedule: Q04DX003 (ip), vehicle: saline with Tween-80.
Where [3] appears, read: T/C endpoint: mean survival time, dose: 400.0 mg/kg/injection, schedule: Q04DX003 (ip), vehicle: saline.
Setting [4] is: T/C endpoint: mean survival time, dose: 200.0 mg/kg/injection, schedule: Q01DX001 (ip), vehicle: saline.
The mark [5] stands for this setting: T/C endpoint: mean survival time, dose: 400.0 mg/kg/injection, schedule: Q01DX001 (ip), vehicle: saline.
Setting [6] is: T/C endpoint: mean survival time, dose: 400.0 mg/kg/injection, schedule: Q01DX001 (ip), vehicle: saline with Tween-80.
Setting [7] is: T/C endpoint: mean survival time, dose: 400.0 mg/kg/injection, schedule: Q04DX002 (ip), vehicle: saline with Tween-80.

Each structure is given as a SMILES string. The list is a part of this screen's results and no random one: it gathers tests that were run many times, whatever their T/C, doses with no T/C, and many T/C values between a quarter and a half above the control. Other doses and runs of a compound stand elsewhere. T/C gives the treated animals as a percentage of the vehicle group. Some entries give survivors of the animals treated and no T/C: the source holds a T/C of zero for them, seemingly a mark for toxic or unscored doses. Some survivor counts are full or nearly so, which does not show that the dose was tolerated: the source hardly ever lists a survival T/C far under the control, and the zero likely stands for such cases as well. Counts of survivors are from the toxicity check (mostly the fifth day) where no day follows; animals may have died later. Schedule codes are those of the source, taken here to give the interval after Q, in days (D) or hours (H), and the number of doses after X. Some doses were run more than once; the values are given in rising order. Some schedule codes hold Z or #, which are not explained here. For survival time, the PubChem record calls one and a half times the control and up active, and a quarter to a half above the control has no call in these data; cut-offs in other NCI protocols can differ. Marks such as (2×) give the number of equal values in this list. Some T/C values are followed by the survivors on the day toxicity was checked, most often the fifth; where none is given, no animal had died by that day.

Consider `CSc1ccc(NC(=O)C(C)Oc2ccccc2)cc1` (configuration not stated), for which, under setting [1], the survivor count is 6 of 6.
On to `C=C1C(O)CC2CC1C2(C)C` (configuration not stated), for which the survivor count under setting [2] is recorded as 0 of 6.
Regarding `O=C(C[n+]1ccccc1Cc1ccccc1)c1ccccc1`, the survivor count was 1 of 3 (T/C endpoint: mean survival time, dose: 200.0 mg/kg/injection, schedule: Q04DX003 (ip), vehicle: saline with Tween-80); 0 of 6 (T/C endpoint: mean survival time, dose: 200.0 mg/kg/injection, schedule: Q04DX003 (ip), vehicle: saline); 0 of 3 under setting [2]; 0 of 6 under setting [3].
With `CC(C)=NNC(=O)Nc1ccc(C)c(Cl)c1`, the survivor count (T/C endpoint: mean survival time, dose: 200.0 mg/kg/injection, schedule: Q01DX001 (ip), vehicle: Klucel (hydroxypropylcellulose) (HPC)) was 6 of 6.
`O=C1NC(=O)C2(CCc3ccc(N(CCCl)CCCl)cc32)N1` (configuration not stated): the survivor count is 5 of 6 (T/C endpoint: median survival time, dose: 200.0 mg/kg/injection, schedule: Q01DX009 (ip), vehicle: Klucel (hydroxypropylcellulose) (HPC)) and 4 of 6 (T/C endpoint: median survival time, dose: 400.0 mg/kg/injection, schedule: Q01DX009 (ip), vehicle: Klucel (hydroxypropylcellulose) (HPC)).
For the compound `CN(C)/C(N)=N/N`, the survivor count runs as follows: (T/C endpoint: mean survival time, dose: 125.0 mg/kg/injection, schedule: Q01DX Z (oral), vehicle: methylcellulose (MC)) 3 of 6; (T/C endpoint: mean survival time, dose: 250.0 mg/kg/injection, schedule: Q01DX Z (oral), vehicle: methylcellulose (MC)) 3 of 6; (T/C endpoint: mean survival time, dose: 500.0 mg/kg/injection, schedule: Q01DX Z (oral), vehicle: methylcellulose (MC)) 2 of 6; (T/C endpoint: mean survival time, dose: 1000.0 mg/kg/injection, schedule: Q01DX Z (oral), vehicle: methylcellulose (MC)) 2 of 6.
On to `OC[P+](c1ccccc1)(c1ccccc1)c1ccccc1`, for which the survivor count under setting [3] was 6 of 6.
For `C=C(Br)CNC(=O)NCCCl`, the survivor count (T/C endpoint: mean survival time, dose: 400.0 mg/kg/injection, schedule: Q01DX001 (ip), vehicle: Klucel (hydroxypropylcellulose) (HPC)) is 0 of 6.
With `CCCCCCCCCCCCCCCCS(=O)(=O)c1ccc(S(=O)(=O)F)cc1NC(C)=O`, the survivor count (T/C endpoint: mean survival time, dose: 100.0 mg/kg/injection, schedule: Q01DX009 (ip), vehicle: saline sonified) is recorded as 6 of 6 and the survivor count (T/C endpoint: mean survival time, dose: 400.0 mg/kg/injection, schedule: Q01DX009 (ip), vehicle: saline sonified) is reported as 6 of 6.
Turning to `Cc1cc(C)c([I+]c2c(C)cc(C)cc2C)c(C)c1`, the survivor count (T/C endpoint: mean survival time, dose: 1.0 mg/kg/injection, schedule: Q04DX003 (ip), vehicle: acetone) is recorded as 3 of 6; the survivor count (T/C endpoint: mean survival time, dose: 2.0 mg/kg/injection, schedule: Q04DX003 (ip), vehicle: acetone) is listed as 1 of 6; the survivor count (T/C endpoint: mean survival time, dose: 4.0 mg/kg/injection, schedule: Q01DX001 (ip), vehicle: acetone) is 3 of 6; the survivor count (T/C endpoint: mean survival time, dose: 8.0 mg/kg/injection, schedule: Q01DX001 (ip), vehicle: acetone) is 2 of 6; the survivor count (T/C endpoint: mean survival time, dose: 16.0 mg/kg/injection, schedule: Q01DX001 (ip), vehicle: acetone) is 0 of 6.
With `Nc1ccc2nc(N)nc(N)c2c1`, the T/C (T/C endpoint: mean survival time, dose: 100.0 mg/kg/injection, schedule: Q04DX003 (ip), vehicle: Klucel (hydroxypropylcellulose) (HPC)) was 132 % of control [5 of 6 alive]. For the same compound, the survivor count (T/C endpoint: mean survival time, dose: 150.0 mg/kg/injection, schedule: Q01DX009 (ip), vehicle: Klucel (hydroxypropylcellulose) (HPC)) is 0 of 6; the survivor count (T/C endpoint: mean survival time, dose: 200.0 mg/kg/injection, schedule: Q04DX003 (ip), vehicle: Klucel (hydroxypropylcellulose) (HPC)) is given as 0 of 6; the survivor count (T/C endpoint: mean survival time, dose: 400.0 mg/kg/injection, schedule: Q04DX003 (ip), vehicle: Klucel (hydroxypropylcellulose) (HPC)) is reported as 1 of 6.
For the compound `NC(CSS(=O)(=O)O)=NCCSc1ccc(Cl)cc1`, the survivor count reads like this: (T/C endpoint: mean survival time, dose: 50.0 mg/kg/injection, schedule: Q04DX002 (ip), vehicle: Klucel (hydroxypropylcellulose) (HPC)) 1 of 3; (T/C endpoint: mean survival time, dose: 100.0 mg/kg/injection, schedule: Q04DX002 (ip), vehicle: Klucel (hydroxypropylcellulose) (HPC)) 0 of 3; (T/C endpoint: mean survival time, dose: 200.0 mg/kg/injection, schedule: Q04DX002 (ip), vehicle: Klucel (hydroxypropylcellulose) (HPC)) 0 of 3; (T/C endpoint: mean survival time, dose: 400.0 mg/kg/injection, schedule: Q04DX002 (ip), vehicle: Klucel (hydroxypropylcellulose) (HPC)) 0 of 3.
On to `C(=NC12CC3CC(CC(C3)C1)C2)c1ccccc1`, for which the survivor count (T/C endpoint: mean survival time, dose: 100.0 mg/kg/injection, schedule: Q01DX009 (ip), vehicle: saline) is 4 of 6.
Regarding `COc1cc(Br)c2c(c1OC)C1(CC[N+](C)(C)C)CC(=O)CCC1CC2` (configuration not stated), the survivor count reads like this: under setting [4], 0 of 6; under setting [5], 0 of 6.
For the compound `CSc1ccc(NC(=O)Nc2ccc(C(=O)NCC(=O)O)cc2)cc1`, the T/C (T/C endpoint: mean survival time, dose: 50.0 mg/kg/injection, schedule: Q01DX009 (ip), vehicle: saline with Tween-80) is 97, 98, 105 % of control (2×). Moreover, the survivor count runs as follows: (T/C endpoint: mean survival time, dose: 100.0 mg/kg/injection, schedule: Q01DX009 (ip), vehicle: saline with Tween-80) 0 of 3, 1 of 3, 3 of 6, 6 of 6; under setting [1], 1 of 6; (T/C endpoint: mean survival time, dose: 200.0 mg/kg/injection, schedule: Q01DX009 (ip), vehicle: saline with Tween-80) 0 of 3 and 0 of 6; under setting [6], 1 of 6; under setting [7], 0 of 3 and 1 of 6.
For the compound `O=C(O)CN(CCN(CC(=O)O)CC(=O)O)CCN(CC(=O)O)CC(=O)O`, the survivor count (T/C endpoint: mean survival time, dose: 200.0 mg/kg/injection, schedule: Q01DX001 (ip), vehicle: carboxymethylcellulose (CMC)) is listed as 2 of 4.
For the compound `O=C(c1cccc([N+](=O)[O-])c1)c1[nH]c2sc3c(c2c1O)CCCC3`, the survivor count is, setting by setting: (T/C endpoint: mean survival time, dose: 25.0 mg/kg/injection, schedule: Q01DX009 (ip), vehicle: Klucel (hydroxypropylcellulose) (HPC)) 6 of 6; (T/C endpoint: mean survival time, dose: 50.0 mg/kg/injection, schedule: Q01DX009 (ip), vehicle: Klucel (hydroxypropylcellulose) (HPC)) 0 of 6; (T/C endpoint: mean survival time, dose: 100.0 mg/kg/injection, schedule: Q01DX009 (ip), vehicle: Klucel (hydroxypropylcellulose) (HPC)) 0 of 6; (T/C endpoint: mean survival time, dose: 200.0 mg/kg/injection, schedule: Q01DX009 (ip), vehicle: Klucel (hydroxypropylcellulose) (HPC)) 0 of 6; (T/C endpoint: mean survival time, dose: 400.0 mg/kg/injection, schedule: Q01DX009 (ip), vehicle: Klucel (hydroxypropylcellulose) (HPC)) 0 of 6.
With `CC(O)(C(F)(F)F)C(C)(O)C(F)(F)F` (configuration not stated), under setting [7], the survivor count is reported as 0 of 3.
As for `COc1ccc(CC(N)C(=O)OCc2ccccc2)cc1N(CCCl)CCCl` (configuration not stated), the T/C runs as follows: (T/C endpoint: mean survival time, dose: 0.15 mg/kg/injection, schedule: Q01DX009 (ip), vehicle: saline) 127 % of control; (T/C endpoint: mean survival time, dose: 0.3 mg/kg/injection, schedule: Q01DX009 (ip), vehicle: saline) 129 % of control; (T/C endpoint: mean survival time, dose: 0.7 mg/kg/injection, schedule: Q01DX009 (ip), vehicle: saline) 126 % of control; (T/C endpoint: mean survival time, dose: 0.75 mg/kg/injection, schedule: Q01DX009 (ip), vehicle: saline) 137 % of control; (T/C endpoint: mean survival time, dose: 1.5 mg/kg/injection, schedule: Q01DX009 (ip), vehicle: saline) 131 % of control; (T/C endpoint: mean survival time, dose: 3.0 mg/kg/injection, schedule: Q01DX001 (ip), vehicle: saline) 125 % of control. Moreover, the T/C (T/C endpoint: mean survival time, dose: 3.0 mg/kg/injection, schedule: Q01DX009 (ip), vehicle: saline) was 137 % of control and the T/C (T/C endpoint: mean survival time, dose: 6.0 mg/kg/injection, schedule: Q01DX001 (ip), vehicle: saline) was 136 % of control. Further, the survivor count reads like this: (T/C endpoint: mean survival time, dose: 25.0 mg/kg/injection, schedule: Q01DX001 (ip), vehicle: saline) 6 of 6; (T/C endpoint: mean survival time, dose: 50.0 mg/kg/injection, schedule: Q01DX001 (ip), vehicle: saline) 0 of 6; (T/C endpoint: mean survival time, dose: 100.0 mg/kg/injection, schedule: Q01DX001 (ip), vehicle: saline) 0 of 6; under setting [4], 0 of 6; under setting [5], 0 of 6.
As to `CCCCCCCCCCCCc1ccc(/C(C)=N/NC(=O)c2ccc[n+](C)c2)cc1`, the survivor count is on record as 0 of 6 under setting [1] and 0 of 6 under setting [6].
As to `CC(O)CNC1CCCCC1` (configuration not stated), the survivor count (T/C endpoint: mean survival time, dose: 300.0 mg/kg/injection, schedule: Q01DX001 (ip), vehicle: saline) was 3 of 6.
